This note sets out measurements from article PMC10486057.

Protein sequences, listed by entry. Tags and fused reporters are not part of them.
UniProt P35222: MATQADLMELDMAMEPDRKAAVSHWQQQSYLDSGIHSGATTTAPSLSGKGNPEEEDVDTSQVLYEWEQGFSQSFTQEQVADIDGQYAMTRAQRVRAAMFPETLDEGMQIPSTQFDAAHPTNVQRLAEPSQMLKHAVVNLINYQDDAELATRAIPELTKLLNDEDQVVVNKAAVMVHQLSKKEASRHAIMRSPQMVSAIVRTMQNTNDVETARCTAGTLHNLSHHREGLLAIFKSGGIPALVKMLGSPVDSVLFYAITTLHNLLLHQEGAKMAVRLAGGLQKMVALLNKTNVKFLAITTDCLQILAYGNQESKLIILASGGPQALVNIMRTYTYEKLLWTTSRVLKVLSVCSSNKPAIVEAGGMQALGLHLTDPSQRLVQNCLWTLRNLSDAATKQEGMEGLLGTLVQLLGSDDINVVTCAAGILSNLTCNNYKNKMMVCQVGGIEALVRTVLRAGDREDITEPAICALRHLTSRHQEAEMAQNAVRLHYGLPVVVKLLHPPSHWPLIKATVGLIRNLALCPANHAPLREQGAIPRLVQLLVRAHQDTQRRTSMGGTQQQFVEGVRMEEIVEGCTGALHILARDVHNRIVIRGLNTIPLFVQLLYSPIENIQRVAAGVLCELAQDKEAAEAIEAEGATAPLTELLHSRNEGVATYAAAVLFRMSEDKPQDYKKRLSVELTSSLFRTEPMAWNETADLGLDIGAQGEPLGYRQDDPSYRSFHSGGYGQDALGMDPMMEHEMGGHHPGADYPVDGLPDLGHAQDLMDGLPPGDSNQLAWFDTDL

No constants are given. Whether binding was seen depends on the method and setting. Binding seen in cells or lysates may run through a third protein. Some results given as binding are weak or reduced against the parent protein; the word gives no strength.

Assay [1] has as its target β-catenin (human (endogenous in iPSC-CMs)) (UniProt P35222). The experiment in a line: co-IP; lysate of control iPSC-CMs (Pierce Classic Magnetic IP/Co-IP Kit, 1x lysis/wash buffer with protease inhibitor); incubated with anti-β-catenin or anti-Nav1.5 antibody 2 h at room temperature, magnetic beads 1 h; eluted proteins identified by Western blot. Background: Immunoblotting shows a protein as a band on a membrane.

Assay [2] deals with voltage-gated cardiac sodium channel (Nav1.5), α-subunit encoded by SCN5A (human (endogenous in iPSC-CMs)) (UniProt Q14524). The assay is described as above.

On to “voltage-gated cardiac sodium channel (Nav1.5), α-subunit encoded by SCN5A (from UniProt Q14524 1-2016)”, for which the binding entry in assay [1] is “binds”.
On to β-catenin (from UniProt P35222 1-781), for which, in assay [2], the binding entry is “binds”.
